Test results taken from US20110281834A1, “Pharmaceutical Formulations for Iontophoretic Delivery of a Corticosteroid” (priority 2008, published 2011).

How the values were obtained:
[1] = Iontophoretic drug permeation through hairless rat skin in Franz diffusion cells; assay type: in vitro ADME; settings: 25 mg/mL, pH 7.4; cathodal 0.4 mA/cm^2 for 30 min, 1 hr or 4 hr; FIG. 3
Experimental: Full thickness abdominal skin freshly excised from sacrificed hairless rats was equilibrated in the receptor buffer and mounted on Franz diffusion cells (0.64 cm^2). The donor compartment (0.5 ml) contained corticosteroid in an appropriate buffer. […] For triamcinolone acetonide (TMCA), 3.5 mg/mL TMCA formulation (in 25% w/w PEG 400, 25% ETOH, 15% cremophor RH40, qs to 100% with citrate buffer pH 5.0) was used for the donor compartment. […] The receptor compartment for TMCA was citrate buffer with 20% ethanol. […] TMCA has no charge at pH 5 and was therefore delivered by anodal iontophoresis to utilize electroosmosis. […] For TMCA, the anode (Silver-Silver Chloride) was placed in the donor chamber along with drug solution and the cathode (Silver wire) was placed in the receptor chamber. Electric current (0.2 to 0.4 mA/cm^2) was applied using a custom current control device for up to 1 hr, after which experiments were either terminated or allowed to continue passively for various durations. […] The samples were then analyzed by HPLC to measure drug permeation through skin. […] For TMCA, samples of receptor fluid (injection volume 20 uL, run time 8 min) were analyzed using the same HPLC system with a flow rate of 0.8 ml/min and UV detection at 237 nm. […] Data were expressed as means±standard deviations. […]
Samples were removed periodically from the receptor and analyzed by HPLC.

[2] = In vivo skin delivery: tape stripping (stratum corneum) and skin extraction (underlying skin); settings: hairless, rat, other: cathodal iontophoresis through abdominal skin, 300 uL, ITP treated group, 0.2 mA/cm^2 for 60 minutes, read-out: drug concentration attained in the skin (stratum corneum and underlying skin)
From the text: After wiping excess drug off the skin using a moist kimwipe, pre-weighed tape strips were placed on the area exposed to the drug and made sure they adhered to the skin by rolling with a glass rod for 30 seconds. After rolling, the tape strips were held from one end with a pair of forceps and ripped off the skin very quickly. The first strip was discarded to remove the remnants of the drug on the skin. This process was continued with 30 strips to fully remove the stratum corneum and each strip analyzed for drug content by immersing in 1 mL extraction buffer for 1 hr under gentle stirring (150 rpm). […] All tape strip extracts were analyzed with HPLC. […] TEWL values were also recorded after every five strips.
After tape stripping, the rats were euthanized and the underlying skin excised. Before proceeding for skin extraction studies, the weight of the excised skin piece was recorded. This excised skin was minced into small pieces and placed into glass vials. To this minced skin, 1 mL deionised water was added and shaken for 30 minutes on a shaker. To this 100 μL of 0.1% HCl was added and centrifuged. To the centrifuged sample 6 mL of methylene chloride was added and shaken for 30 minutes. […] After evaporation, the samples were reconstituted using 1 mL of acetonitrile, filtered and filled in HPLC vials and analyzed accordingly. […] The measured drug levels from the skin were corrected for recovery. […]

concentration at 60 min [2]: 80.9 ± 19.4 µM
Compound: C[C@@H]1C[C@H]2[C@@H]3CCC4=CC(=O)C=C[C@]4(C)[C@@]3(F)[C@@H](O)C[C@]2(C)[C@@]1(O)C(=O)COP(=O)(O)O [DEX, dexamethasone sodium phosphate]
permeation over time, all iontophoresis durations vs passive [1]: higher permeation over time compared to passive treatment
